These are yes or no findings as the source states them, for the method shown. Binding can be weak; no strength is given. Tags and fused reporters may be left off the sequences shown.
Biological target: T1, pep11** fused to the GAL4 DNA binding domain
T1 sequence: KEKEEYNSNCSCIACIGLI
Assay: two-hybrid; mammalian two-hybrid (CheckMate) in HeLa cells; peptides fused to GAL4-BD (pBIND), E6 proteins fused to VP16-AD (pACT); luciferase reporter pG5luc, normalized for pCMV-Gal

In the case of “16E6R55A fused to the VP16 transcriptional activation domain (human papillomavirus type 16)”, the binding is reported as “binds”.

From PMC4226571, “The E6AP Binding Pocket of the HPV16 E6 Oncoprotein Provides a Docking Site for a Small Inhibitory Peptide Unrelated to E6AP, Indicating Druggability of E6” (PLoS ONE, 2014)
